{
  "sequences": {"note": "Protein sequences, listed by entry. Tags and fused reporters are not part of them.", "UniProt Q8N1I0": "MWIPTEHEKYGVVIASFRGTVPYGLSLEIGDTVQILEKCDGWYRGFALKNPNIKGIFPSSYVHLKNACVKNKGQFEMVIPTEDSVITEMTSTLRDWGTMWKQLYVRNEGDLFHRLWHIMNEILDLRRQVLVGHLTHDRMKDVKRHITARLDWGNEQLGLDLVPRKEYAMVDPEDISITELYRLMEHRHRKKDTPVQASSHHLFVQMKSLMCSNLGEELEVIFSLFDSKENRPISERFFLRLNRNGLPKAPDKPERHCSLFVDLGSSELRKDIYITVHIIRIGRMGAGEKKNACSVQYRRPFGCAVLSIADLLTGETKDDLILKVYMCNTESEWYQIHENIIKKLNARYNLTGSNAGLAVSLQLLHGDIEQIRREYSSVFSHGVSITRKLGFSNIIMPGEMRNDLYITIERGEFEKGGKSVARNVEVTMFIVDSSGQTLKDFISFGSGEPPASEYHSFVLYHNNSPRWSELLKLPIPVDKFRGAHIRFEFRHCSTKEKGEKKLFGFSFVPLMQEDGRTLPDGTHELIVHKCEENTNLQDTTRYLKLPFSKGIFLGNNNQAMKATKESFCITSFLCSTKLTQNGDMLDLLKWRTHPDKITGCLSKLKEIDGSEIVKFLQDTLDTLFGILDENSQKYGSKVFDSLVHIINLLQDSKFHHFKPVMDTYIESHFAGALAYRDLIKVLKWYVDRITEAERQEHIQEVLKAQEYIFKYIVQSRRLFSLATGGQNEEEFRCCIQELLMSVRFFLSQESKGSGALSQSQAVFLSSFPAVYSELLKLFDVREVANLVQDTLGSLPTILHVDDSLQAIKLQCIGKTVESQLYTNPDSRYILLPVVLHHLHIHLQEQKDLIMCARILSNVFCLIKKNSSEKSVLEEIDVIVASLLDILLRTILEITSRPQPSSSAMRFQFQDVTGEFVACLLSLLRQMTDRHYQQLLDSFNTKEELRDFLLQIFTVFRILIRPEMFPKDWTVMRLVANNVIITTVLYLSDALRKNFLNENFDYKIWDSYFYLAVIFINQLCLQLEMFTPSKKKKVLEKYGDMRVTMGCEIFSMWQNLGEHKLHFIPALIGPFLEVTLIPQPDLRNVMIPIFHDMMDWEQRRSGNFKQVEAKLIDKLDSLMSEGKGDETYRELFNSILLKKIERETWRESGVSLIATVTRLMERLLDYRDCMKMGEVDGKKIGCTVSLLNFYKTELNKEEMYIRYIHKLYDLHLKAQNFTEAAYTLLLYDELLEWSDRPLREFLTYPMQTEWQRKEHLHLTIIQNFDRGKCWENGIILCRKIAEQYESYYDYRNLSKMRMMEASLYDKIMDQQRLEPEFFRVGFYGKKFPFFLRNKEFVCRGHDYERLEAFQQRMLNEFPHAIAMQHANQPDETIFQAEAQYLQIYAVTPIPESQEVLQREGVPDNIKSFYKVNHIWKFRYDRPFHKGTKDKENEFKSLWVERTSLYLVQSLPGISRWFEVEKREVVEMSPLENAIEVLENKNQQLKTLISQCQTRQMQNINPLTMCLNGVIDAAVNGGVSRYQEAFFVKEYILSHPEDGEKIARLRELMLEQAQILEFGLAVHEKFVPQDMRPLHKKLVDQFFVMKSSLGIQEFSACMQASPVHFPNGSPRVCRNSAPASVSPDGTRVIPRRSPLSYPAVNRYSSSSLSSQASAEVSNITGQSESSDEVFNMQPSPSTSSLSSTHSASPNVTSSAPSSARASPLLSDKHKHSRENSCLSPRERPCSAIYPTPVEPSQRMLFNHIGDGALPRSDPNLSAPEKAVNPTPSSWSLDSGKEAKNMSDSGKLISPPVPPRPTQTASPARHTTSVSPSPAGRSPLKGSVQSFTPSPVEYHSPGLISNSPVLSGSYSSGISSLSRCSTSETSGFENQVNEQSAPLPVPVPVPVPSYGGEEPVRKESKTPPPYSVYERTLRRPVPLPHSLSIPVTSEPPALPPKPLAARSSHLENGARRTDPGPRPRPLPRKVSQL"},
  "source": "paper PMC7696252",
  "binders": {"B1": {"name": "ShcD (protein, UniProt Q6S5L8 1-630)", "chain": "MRERGQDSLAGLVLYVGLFGHPGMLHRAKYSRFRNESITSLDEGSSGGSVGNKGSPQPPHPALAPHLPTEDATLPSQESPTPLCTLIPRMASMKLANPATLLSLKNFCLGTKEVPRLKLQESRDPGSSGPSSPETSLSRSGTAPPPQQDLVGHRATALTPDSCPLPGPGEPTLRSRQDRHFLQHLLGMGMNYCVRYMGCVEVLQSMRSLDFGMRTQVTREAISRLCEAVPGANGAIKKRKPPVKFLSTVLGKSNLQFSGMNIKLTISTCSLTLMNLDNQQIIANHHMQSISFASGGDPDTTDYVAYVAKDPVNQRACHILECHNGMAQDVISTIGQAFELRFKQYLKNPSLNTSCESEEVHIDSHAEEREDHEYYNEIPGKQPPVGGVSDMRIKVQATEQMAYCPIQCEKLCYLPGNSKCSSVYENCLEQSRAIGNVHPRGVQSQRDTSLLKHTCRVDLFDDPCYINTQALQSTPGSAGNQRSAQPLGSPWHCGKAPETVQPGATAQPASSHSLPHIKQQLWSEECYHGKLSRKAAESLLVKDGDFLVRESATSPGQYVLSGLQGGQAKHLLLVDPEGKVRTKDHVFDNVGHLIRYHMDNSLPIISSGSEVSLKQPVRKDNNPALLHSNK"}},
  "target": "DOCK4 (human (endogenous in MM27 and WM115)) (UniProt Q8N1I0)",
  "experiment": "co-IP; lysates (3 mg) of ShcD overexpressing MM27 cells (also WM115 cells) in PLC lysis buffer (50 mM HEPES pH 7.5, 150 mM NaCl, 10% glycerol, 0.5% Triton X-100, 1.5 mM MgCl2, 1 mM EGTA); anti-DOCK4 antibody 3 h at 4 °C, protein A Sepharose 1 h; anti-IgG as negative control; blot with anti-ShcD",
  "note": "Results are given in words; binding and its absence hold for the method and conditions named. In cells and extracts the contact can be indirect. Some binding calls cover weakened binding; strength is not graded here.",
  "data": [
    {"binder": "B1", "values": [
      {"measurement": "binding", "result": "binds"}
    ]}
  ]
}
